Measurements: publication doi:10.1101/2020.02.18.954511
Results are given in words; binding and its absence hold for the method and conditions named.

Amino acid sequences for entries named in this document (tags omitted). Residues count along the entry.
UniProt P02769, residues 25-607: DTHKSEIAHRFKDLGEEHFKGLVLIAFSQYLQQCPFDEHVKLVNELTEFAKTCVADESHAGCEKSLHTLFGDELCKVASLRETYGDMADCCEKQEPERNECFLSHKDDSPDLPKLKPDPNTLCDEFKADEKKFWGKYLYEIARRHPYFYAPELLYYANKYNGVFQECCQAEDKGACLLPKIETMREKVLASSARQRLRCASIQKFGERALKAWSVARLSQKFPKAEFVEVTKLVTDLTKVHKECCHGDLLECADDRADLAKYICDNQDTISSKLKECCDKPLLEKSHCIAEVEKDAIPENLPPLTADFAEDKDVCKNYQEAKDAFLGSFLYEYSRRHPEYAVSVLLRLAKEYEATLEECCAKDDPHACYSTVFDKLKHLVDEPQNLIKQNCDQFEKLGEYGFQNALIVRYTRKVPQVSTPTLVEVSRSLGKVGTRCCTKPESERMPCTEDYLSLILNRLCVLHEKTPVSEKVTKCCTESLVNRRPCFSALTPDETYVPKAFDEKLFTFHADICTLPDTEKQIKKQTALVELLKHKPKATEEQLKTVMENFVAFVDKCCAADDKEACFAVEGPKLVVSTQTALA

Target: T1, diol dehydratase PduCDE (Salmonella enterica) (UniProt P37450)
T1 sequence 1: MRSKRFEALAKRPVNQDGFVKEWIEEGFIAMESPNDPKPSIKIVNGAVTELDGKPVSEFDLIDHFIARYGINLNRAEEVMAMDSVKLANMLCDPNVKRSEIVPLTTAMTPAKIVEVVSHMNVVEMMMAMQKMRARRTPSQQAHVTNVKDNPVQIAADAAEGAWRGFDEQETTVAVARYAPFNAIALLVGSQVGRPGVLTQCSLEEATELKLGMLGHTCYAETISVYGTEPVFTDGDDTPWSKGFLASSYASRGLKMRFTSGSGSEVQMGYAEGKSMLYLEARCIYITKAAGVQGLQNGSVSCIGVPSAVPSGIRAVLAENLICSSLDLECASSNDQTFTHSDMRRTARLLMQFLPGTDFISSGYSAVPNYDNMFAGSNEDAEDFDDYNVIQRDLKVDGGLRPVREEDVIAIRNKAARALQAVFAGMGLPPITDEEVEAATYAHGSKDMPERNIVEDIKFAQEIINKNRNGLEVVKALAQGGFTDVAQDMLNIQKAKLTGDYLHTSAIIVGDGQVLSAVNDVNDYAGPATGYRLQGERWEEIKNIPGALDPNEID
T1 sequence 2: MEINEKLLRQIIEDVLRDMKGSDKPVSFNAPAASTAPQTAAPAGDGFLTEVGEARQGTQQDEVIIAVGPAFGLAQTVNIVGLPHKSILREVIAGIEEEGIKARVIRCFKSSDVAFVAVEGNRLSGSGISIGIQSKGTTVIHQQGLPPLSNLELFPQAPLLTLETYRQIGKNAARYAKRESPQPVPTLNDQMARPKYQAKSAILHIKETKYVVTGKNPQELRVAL
T1 sequence 3: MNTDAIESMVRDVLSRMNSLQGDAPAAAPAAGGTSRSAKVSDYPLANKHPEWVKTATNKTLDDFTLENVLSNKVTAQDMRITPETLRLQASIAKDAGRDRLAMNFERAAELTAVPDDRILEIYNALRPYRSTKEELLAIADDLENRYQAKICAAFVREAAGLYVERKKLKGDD
Assay: BLI

Question: For BSA (from UniProt P02769 25-607), which binding is on record?
Answer: no binding
